Reference: patent US20040059140A1, “14(15)-unsaturated 15- and/or 16-substituted androgens with mixed androgen-progrestational profile” (priority 2000, published 2004)
For at least one compound, name, drawing or mass did not settle the structure.

Target: T1, human androgen receptor (hAR) (Homo sapiens, UniProt P10275)
T1 construct: expressed in transfected cells; host or cells: CHO (Chinese hamster ovary) cells
T1 sequence (P10275 1-920): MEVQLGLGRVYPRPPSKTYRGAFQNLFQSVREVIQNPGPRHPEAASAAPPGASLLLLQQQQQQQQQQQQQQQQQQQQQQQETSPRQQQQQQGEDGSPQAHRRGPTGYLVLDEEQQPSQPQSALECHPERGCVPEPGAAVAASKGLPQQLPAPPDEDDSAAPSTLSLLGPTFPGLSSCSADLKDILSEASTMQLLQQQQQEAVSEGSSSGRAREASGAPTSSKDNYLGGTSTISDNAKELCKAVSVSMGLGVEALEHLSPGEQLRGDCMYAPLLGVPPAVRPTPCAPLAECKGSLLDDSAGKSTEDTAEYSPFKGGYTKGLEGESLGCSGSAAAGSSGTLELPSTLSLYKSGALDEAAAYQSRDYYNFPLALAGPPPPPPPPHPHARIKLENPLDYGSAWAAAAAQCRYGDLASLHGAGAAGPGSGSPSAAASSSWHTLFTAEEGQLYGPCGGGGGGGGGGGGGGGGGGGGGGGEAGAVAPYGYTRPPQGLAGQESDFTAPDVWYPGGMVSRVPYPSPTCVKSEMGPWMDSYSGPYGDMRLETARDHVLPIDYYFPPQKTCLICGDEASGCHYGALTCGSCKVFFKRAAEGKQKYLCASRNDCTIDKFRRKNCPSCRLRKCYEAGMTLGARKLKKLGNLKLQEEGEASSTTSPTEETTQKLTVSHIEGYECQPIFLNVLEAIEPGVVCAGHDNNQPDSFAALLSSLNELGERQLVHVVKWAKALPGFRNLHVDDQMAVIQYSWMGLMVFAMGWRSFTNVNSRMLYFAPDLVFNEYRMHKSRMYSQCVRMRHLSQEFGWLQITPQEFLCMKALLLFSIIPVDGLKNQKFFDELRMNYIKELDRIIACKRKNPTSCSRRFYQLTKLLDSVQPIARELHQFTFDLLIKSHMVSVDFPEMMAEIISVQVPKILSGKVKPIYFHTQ
Experiment: Androgenic activity (transactivation in CHO cells transfected with hAR, MMTV-luciferase, compared with 5α-dihydrotestosterone)
Format: cell-based
Conditions: ratio of androgenic to progestational activity
Source text: Androgenic activity can be measured in various ways. Thus, the potency of androgens can be determined in vitro using the cytoplasmic androgen receptor from human breast tumor cells (MCF-7 cell line); see Bergink, E. W. et al, Comparison of the receptor binding properties of nandrolone and testosterone under in vitro and in vivo conditions, J. Steroid Biochem. 22, 831-836 (1985). […] The transactivative androgen activity of the compounds of the invention can be measured, e.g. in Chinese hamster ovary cells (CHO) transfected with the human androgen receptor (hAR), in combination with a mouse mammary tumor virus (MMTV), and luciferase receptor gene (incubation time 16 h, temperature 37° C.) and compared with the activity of 5α-dihydrotestosterone [according to the procedure described by Schoonen, W. G. E. J. et al, Analyt. Biochem. 261, 222-224 (1998)]. For the in vivo potency determination of androgens the classical Hershberger test can be used. In this test the androgenic (increase in prostate weight) and anabolic activities [increase of the musculus levator ani (MLA)] of a compound are tested in immature castrated rats after daily administration for 7 days; see Hershberger, L. G. et al, Myotrophic activity of 19-Nortestosterone and other steroids determined by modified levator ani muscle method, Proceedings of the society for experimental biology and medicine 83, 175-180 (1953). […]

CC[C@@H]1CC2=CC(=O)CC[C@@H]2[C@H]2CC[C@@]3(C)C(=C[C@@H](C)[C@@H]3O)[C@H]12 [Example 7b, (7α,16α,17β)-17-Hydroxy-7-ethyl-16-metliylestra-4,14-dien-3-one]
Ratio A/P activity: 17:1
